The text below walks through data of patent US20030217372A1, “Methods of using alpha 1b-adrenergic receptors” (priority 2002, published 2003).

This series has as its system WT and α1b-AR KO mice. As to the kind of experiment: Oral consumption, two-bottle choice paradigm. In kind it is in vivo. Here is the method: Fluid intake was measured daily by weighting bottles, mice being housed individually. Tested solutions were replaced twice weekly.
Cocaine and morphine: For two weeks, bottles were filled with cocaine or morphine solution of decreasing concentration (one dose per week; 0.3 mg/ml then 0.2 mg/ml for cocaine and 0.2 mg/ml and 0.15 mg/ml for morphine) instead of water, so that mice accustom to the bitter taste. […] Then, to determine mean water consumption and eliminate basal side preference, two bottles of water were given for three days to each animal and basal consumption was calculated as the mean consumption from one bottle on day 2 and the other on day 3. Preference for cocaine (0.2 mg/ml) or morphine (0.15 mg/ml) was then measured over two 12-day sessions, drug and water sides being exchanged between the 2 sessions. Means of drug and water consumptions were estimated for the last 5 days of both 12-day periods.
Rewarding properties of cocaine and morphine were assessed in a two-bottle choice paradigm adapted from the method described by Ferraro et al. (Ferraro et al., Pharmacol. Biochem. Behav. 66:397-401, 2000) for cocaine and Borg and Taylor (Borg et al., Biochem. Behav. 47:633-46, 1994) for morphine.

For the molecule `COC(=O)[C@H]1[C@@H](OC(=O)c2ccccc2)C[C@@H]2CC[C@H]1N2C.Cl` [cocaine, cocaine hydrochloride], the “fluid intake when water replaced by drug solution” value (from here on “fluid intake when water replaced”) (mice, cocaine 0.3 then 0.2 mg/ml) is listed as “no significant alteration”. Turning to `CN1CC[C@]23c4c5ccc(O)c4O[C@H]2[C@@H](O)C=C[C@H]3[C@H]1C5` [morphine, morphine chiorhydrate], the “fluid intake when water replaced” value (WT mice, morphine 0.15 mg/ml, water 97.5±5.0) came to 4.883 ± 0.162 mL/h/kg and the “fluid intake when water replaced” value (α1b-AR KO mice, morphine) is “but not α1b-AR KO fluid intake”.
